Assay results published in paper PMC10163288.
The other results are listed elsewhere or left out.

B1: il2ra_site2_2erj_normal_mot_HHH_b2_01275_af2_000000073_0001_23_39_H_._HHH_b2_00463_0001_0000300023_0000001_0 (protein)
chain: SSSSSDKEEVEEEVEEILRRAEETDDLREAYKLAVRALRLAAELGDPELQELVRRVVERLSSSSS
B2: il2ra_site2_3nfp_normal_mot_HHH_b1_00660_af2_000000090_0001_40_57_H_._HHH_b1_06769_0001_0000400011_0000001_0_af2pred_0001_af2pred (protein)
chain: SSSSSSEELEEEVEELLERAKHIDDPEEREELLHEASELAYELQNFQLFALVSLVIEKLRSSSSS
B3: il2ra_site2_3nfp_sap_25_mot_HHH_b1_00784_000000093_0001_41_55_H_._3aefc51b0440b32321f790e365bc563e_0001_1_0001_0000300021_0000001_0_0001_af2pred_0001_af2pred (protein)
chain: SSSSDEEEEAERLEKELRELEENNDEERLRRLAEEAAEFARQTNDEELFAIALEIRRKLDSSSSS
B4: il2ra_site2_2erj_sap_20_mot_HHH_b1_06165_000000050_0001_41_56_H_._HHH_b2_00716_0001_0000600018_0000001_0_0001 (protein)
chain: SSSSSELVQEALRIIKEAFERGLSEEEIKELLERLLEEARELGDEDEVAMIETLIEYLERLSSSS
B5: il2ra_site1_3nfp_normal_mot_HHH_b1_03753_af2_000000088_0001_41_54_H_._8822628e7dce7141ff94e8fdab707b8c_0001_1_0001_0000100001_0000001_0_af2pred_0001_af2pred_swa … (protein)
chain: SEEEEEAEELLKKSLPPRAVEALKFLAEAVKEGNPSAERKLRVDLKAARQLGDEAVVRAIELLLK
B6: il2ra_site1_3nfp_normal_mot_HHH_b1_03753_af2_000000088_0001_41_54_H_._HHH_b1_07059_af2_0001_0000600012_0000001_0_af2pred_0001_af2pred_swapped (protein)
chain: SSSSSEEREELQRLIEKAMELAFQGDHEEAERLLREAKRIAEELGNERLERRIEFDLKAISSSSS
B7: il2ra_site1_2b5i_sap_13_mot_HHH_b2_04131_000000150_0001_1_16_H_._HHH_b2_04520_af2_0001_0000200022_0000001_0_0001_af2pred_dldesign_0_af2pred (protein)
chain: SSSSSTSPEELVDELIERARKEEDPLLRRKILTLARRVARKANDPALVARVEAVEKELAASSSSS
B8: il2ra_site1_2b5i_sap_15_mot_HHH_b1_05017_af2_000000115_0001_1_18_H_._HHH_b2_00737_af2_0001_0000400026_0000001_1_0001_af2pred_dldesign_0_af2pred (protein)
chain: SSSSSSSSQRAKLEEAERILKELSPEEARAKLAELLAEARAAKDERTARALELALEEASSSSSSS
B9: il2ra_site1_1z92_normal_mot_HHH_b2_01902_af2_000000252_0001_25_40_H_._HHH_b1_08109_0001_0000100030_0000001_0 (protein)
chain: SSSSLEELKKLDRFIVELVEEFGLDDEQAQELLRVALRLQSEGLSPEEIEEILEEVAERLSSSSS
B10: il2ra_site1_2b5i_sap_13_mot_HHH_b2_07873_af2_000000005_0001_23_39_H_._468c40a63644cca753a3029f4a225358_0001_1_0001_0000600018_0000001_0_0001 (protein)
chain: SSSSDSREAQELFHQADEADRNGDPERARELLEEALEIAEEAGSPNLFRMIEAALRQARASSSSS
B11: il2ra_site2_2erj_normal_mot_HHH_b1_07741_000000192_0001_1_20_H_._9b1ece5d1ebc94355a99c96473898622_0001_1_af2_0001_0000500004_0000001_0 (protein)
chain: DDEEFLEEAARENPETFIKYAKRLAENAGNPELLELVEKLEEEVKKGEIPPEEAAELVVRVFREI
B12: il2ra_site1_1z92_sap_21_mot_3afbd42359c492d9a5ba12d7e5b15de5_0001_000000167_0001_17_33_H_._HHH_b1_04942_0001_0000300013_0000001_0_0001_af2pred_0001_af2pred_1_sw … (protein)
chain: SSSSDEEEELEEIVEEIVEEFGLSEEEEELLRRDAKQALKRGFSLRSIERILRHAAERDLSSSSS
B13: il2ra_site2_2erj_normal_mot_HHH_b1_04777_000000131_0001_1_19_H_._HHH_b2_05509_0001_0000200021_0000001_0 (protein)
chain: SSSSSDELEEFVEELIKEFNLSELAKNYLERWARISKEKGQSEEEIKKALEQAAEADLRSSSSSS
B14: il2ra_site2_2erj_normal_mot_ca9fcc9ace360711d783d1260e4fbff1_0001_1_af2_000000007_0001_15_32_H_._HHH_b2_06346_af2_0001_0000200012_0000001_0 (protein)
chain: SSSSSDEEVQEEVREILEEAEKIEDLEEAFRLAVEALRVASEGNDEEALEEVLRWLEERSSSSSS
B15: il2ra_site2_2erj_normal_mot_HHH_b2_02430_000000062_0001_23_40_H_._afa99cb2f1b48a14133d328b841439c2_0001_af2_0001_0000100009_0000001_0 (protein)
chain: SEEAEERARELAGGDLELAFLILAALANLRAGVPPEEIEKLLRRSAEEAGIPPEKVEQALELAEP
B16: il2ra_site1_1z92_sap_13_mot_HHH_b1_00368_000000203_0001_23_39_H_._HHH_b1_04173_af2_0001_0000100007_0000001_0_0001 (protein)
chain: SSSSSSELIWKAMREAQELVREGNEEEARRLLEEVAEELERQNNPAAVKQIERLLRLLEGSSSSS
B17: il2ra_site2_3nfp_sap_17_mot_HHH_b2_07840_000000026_0001_18_34_H_._HHH_b2_07529_0001_0000700032_0000001_0_0001 (protein)
chain: SSSSSEAEEYLEAALLLLERAIELGDKEAFESTLEAVRLAAESNNDEEVEKRVEELEKEFKSSSS
B18: il2ra_site2_2erj_normal_mot_HHH_b1_01029_000000103_0001_43_57_H_._HHH_b2_05337_af2_0001_0000400037_0000001_0 (protein)
chain: SSSSSDWLEELYRLLEEIMRLLAEGNHEEAERLLEELKELAKKADSLAAEEVAELLEQHLSSSSS

The binders below were run against il2ra, P01589 (assay: yeast display titration).

Apparent Kd, inactive:
B1 no binding seen, B2 no binding seen, B3 no binding seen, B4 no binding seen, B5 no binding seen, B6 > 86.3 nM, B7 no binding seen, B8 no binding seen, B9 no binding seen, B10 no binding seen, B11 no binding seen, B12 no binding seen, B13 no binding seen, B14 no binding seen, B15 no binding seen, B16 no binding seen, B17 no binding seen, B18 no binding seen
